13 targets from the supplement of paper PMC12067093, “Discovery and optimisation of a covalent ligand for TRIM25 and its application to targeted protein ubiquitination” (Chemical Science, 2025) can be followed below.

Amino acid sequences for entries named in this document (tags omitted). A change or cut given only in a name is not applied to a line headed by its entry.
UniProt P38398, whole entry, looked up: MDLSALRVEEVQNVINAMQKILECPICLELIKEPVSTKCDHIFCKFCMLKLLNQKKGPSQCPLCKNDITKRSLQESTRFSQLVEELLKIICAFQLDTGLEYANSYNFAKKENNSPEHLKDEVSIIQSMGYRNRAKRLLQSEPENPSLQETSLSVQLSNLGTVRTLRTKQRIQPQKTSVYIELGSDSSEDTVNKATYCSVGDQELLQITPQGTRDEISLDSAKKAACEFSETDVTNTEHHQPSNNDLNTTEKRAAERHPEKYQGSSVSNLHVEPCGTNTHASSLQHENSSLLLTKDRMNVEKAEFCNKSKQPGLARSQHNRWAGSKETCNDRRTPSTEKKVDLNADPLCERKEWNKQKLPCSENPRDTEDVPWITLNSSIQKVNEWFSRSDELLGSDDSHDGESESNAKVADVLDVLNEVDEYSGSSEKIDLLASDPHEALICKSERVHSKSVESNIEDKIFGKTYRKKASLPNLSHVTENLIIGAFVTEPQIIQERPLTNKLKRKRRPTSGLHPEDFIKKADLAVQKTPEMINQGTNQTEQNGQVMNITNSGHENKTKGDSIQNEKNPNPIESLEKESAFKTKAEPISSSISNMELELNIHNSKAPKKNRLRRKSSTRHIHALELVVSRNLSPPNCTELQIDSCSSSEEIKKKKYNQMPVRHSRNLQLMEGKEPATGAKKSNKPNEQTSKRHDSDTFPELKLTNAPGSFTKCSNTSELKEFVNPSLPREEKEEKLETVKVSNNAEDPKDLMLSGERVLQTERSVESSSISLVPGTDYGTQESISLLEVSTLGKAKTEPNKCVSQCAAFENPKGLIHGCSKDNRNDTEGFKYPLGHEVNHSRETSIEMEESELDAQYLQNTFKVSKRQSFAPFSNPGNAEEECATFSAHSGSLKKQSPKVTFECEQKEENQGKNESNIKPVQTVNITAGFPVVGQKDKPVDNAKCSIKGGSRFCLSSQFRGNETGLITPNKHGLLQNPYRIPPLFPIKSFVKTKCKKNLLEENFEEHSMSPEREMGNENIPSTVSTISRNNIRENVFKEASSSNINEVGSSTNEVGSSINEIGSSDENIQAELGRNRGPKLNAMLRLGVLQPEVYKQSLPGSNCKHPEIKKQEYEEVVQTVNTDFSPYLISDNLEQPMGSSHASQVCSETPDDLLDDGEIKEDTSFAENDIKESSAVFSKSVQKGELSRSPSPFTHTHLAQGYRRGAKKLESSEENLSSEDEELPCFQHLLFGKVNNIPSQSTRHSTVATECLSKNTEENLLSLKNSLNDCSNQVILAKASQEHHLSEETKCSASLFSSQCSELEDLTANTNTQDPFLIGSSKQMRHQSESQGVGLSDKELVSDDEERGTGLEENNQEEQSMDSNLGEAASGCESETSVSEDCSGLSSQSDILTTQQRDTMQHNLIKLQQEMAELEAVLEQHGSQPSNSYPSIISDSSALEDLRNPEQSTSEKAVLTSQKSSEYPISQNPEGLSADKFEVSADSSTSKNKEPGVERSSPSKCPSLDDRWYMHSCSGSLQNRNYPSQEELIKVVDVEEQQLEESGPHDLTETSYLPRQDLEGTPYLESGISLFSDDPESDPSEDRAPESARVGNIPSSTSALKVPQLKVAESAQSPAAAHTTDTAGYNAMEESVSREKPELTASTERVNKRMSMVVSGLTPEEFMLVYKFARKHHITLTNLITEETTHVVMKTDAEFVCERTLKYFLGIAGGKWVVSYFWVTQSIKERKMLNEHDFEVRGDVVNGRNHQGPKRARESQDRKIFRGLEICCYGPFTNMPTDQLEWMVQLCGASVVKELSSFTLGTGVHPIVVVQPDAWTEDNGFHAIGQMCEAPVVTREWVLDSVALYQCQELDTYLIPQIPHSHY
UniProt P27824: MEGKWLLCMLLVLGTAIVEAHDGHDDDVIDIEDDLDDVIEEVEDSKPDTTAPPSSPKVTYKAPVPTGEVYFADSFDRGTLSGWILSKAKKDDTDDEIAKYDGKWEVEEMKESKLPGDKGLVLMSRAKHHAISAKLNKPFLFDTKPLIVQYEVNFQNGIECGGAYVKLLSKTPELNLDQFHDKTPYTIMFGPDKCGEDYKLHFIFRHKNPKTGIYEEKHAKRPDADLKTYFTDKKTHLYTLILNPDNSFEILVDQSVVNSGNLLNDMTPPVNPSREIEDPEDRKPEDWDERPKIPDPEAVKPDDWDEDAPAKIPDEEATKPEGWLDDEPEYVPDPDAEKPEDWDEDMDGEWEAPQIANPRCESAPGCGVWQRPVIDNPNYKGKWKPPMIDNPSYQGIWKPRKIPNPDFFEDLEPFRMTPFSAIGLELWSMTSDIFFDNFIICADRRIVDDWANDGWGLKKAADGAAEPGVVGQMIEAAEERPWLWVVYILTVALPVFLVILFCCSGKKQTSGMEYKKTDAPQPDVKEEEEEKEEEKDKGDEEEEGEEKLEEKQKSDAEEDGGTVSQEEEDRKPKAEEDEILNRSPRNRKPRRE
UniProt Q8IU85: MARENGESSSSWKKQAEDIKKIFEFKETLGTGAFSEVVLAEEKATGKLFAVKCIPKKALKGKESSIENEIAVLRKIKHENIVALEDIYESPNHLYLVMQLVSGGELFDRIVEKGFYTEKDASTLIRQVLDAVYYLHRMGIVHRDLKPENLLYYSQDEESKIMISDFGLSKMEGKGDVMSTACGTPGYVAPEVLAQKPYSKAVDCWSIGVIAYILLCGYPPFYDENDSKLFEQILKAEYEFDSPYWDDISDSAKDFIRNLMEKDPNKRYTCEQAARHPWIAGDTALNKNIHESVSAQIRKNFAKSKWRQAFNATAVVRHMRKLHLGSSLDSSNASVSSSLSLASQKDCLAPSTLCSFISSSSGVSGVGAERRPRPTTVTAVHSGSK
UniProt O14523: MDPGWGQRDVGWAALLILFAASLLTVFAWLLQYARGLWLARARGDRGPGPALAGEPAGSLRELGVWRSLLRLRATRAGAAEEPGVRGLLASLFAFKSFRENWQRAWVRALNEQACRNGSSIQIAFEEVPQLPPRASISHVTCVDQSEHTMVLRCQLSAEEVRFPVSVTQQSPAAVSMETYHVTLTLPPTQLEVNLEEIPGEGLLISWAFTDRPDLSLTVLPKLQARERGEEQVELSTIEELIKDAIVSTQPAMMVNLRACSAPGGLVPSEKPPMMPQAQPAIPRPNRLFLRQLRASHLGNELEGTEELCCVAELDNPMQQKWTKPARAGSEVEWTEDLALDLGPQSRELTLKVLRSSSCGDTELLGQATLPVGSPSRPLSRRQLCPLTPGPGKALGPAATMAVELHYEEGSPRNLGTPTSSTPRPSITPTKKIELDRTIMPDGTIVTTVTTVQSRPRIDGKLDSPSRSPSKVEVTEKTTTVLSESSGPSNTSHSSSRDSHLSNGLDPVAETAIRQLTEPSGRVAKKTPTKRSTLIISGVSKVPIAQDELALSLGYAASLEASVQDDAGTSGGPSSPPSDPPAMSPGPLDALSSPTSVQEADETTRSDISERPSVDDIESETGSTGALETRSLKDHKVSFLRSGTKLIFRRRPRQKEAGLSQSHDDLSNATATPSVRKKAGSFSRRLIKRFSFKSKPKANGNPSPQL
UniProt Q9NSG2: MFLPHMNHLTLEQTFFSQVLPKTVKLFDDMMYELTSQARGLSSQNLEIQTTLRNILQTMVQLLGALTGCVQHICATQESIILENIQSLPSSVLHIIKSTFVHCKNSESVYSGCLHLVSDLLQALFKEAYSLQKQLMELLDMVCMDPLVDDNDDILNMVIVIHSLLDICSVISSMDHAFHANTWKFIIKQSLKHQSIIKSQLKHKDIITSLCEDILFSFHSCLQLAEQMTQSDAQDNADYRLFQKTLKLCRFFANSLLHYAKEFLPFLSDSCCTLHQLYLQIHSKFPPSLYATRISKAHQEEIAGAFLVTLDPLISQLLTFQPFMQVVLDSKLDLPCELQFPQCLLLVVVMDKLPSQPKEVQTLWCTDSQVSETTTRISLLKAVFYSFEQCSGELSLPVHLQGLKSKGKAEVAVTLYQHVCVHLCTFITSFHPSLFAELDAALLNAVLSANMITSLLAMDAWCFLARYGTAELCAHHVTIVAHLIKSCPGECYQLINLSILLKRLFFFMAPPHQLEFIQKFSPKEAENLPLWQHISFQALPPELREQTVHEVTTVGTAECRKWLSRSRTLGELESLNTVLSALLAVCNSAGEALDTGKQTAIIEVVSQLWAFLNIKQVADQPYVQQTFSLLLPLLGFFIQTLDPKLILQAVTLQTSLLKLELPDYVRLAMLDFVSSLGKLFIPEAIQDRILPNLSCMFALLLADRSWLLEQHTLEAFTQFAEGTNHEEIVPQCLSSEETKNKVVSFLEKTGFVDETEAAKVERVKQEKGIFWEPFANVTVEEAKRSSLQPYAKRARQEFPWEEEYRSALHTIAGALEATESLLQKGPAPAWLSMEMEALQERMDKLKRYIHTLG
UniProt Q9H3H3: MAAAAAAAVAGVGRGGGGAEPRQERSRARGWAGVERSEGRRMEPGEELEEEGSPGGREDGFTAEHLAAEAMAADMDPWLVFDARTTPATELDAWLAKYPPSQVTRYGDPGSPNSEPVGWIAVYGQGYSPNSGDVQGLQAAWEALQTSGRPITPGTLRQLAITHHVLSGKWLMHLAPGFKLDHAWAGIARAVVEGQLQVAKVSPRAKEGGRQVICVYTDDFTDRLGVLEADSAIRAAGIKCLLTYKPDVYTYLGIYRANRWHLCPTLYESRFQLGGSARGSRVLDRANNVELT
UniProt Q9HB07: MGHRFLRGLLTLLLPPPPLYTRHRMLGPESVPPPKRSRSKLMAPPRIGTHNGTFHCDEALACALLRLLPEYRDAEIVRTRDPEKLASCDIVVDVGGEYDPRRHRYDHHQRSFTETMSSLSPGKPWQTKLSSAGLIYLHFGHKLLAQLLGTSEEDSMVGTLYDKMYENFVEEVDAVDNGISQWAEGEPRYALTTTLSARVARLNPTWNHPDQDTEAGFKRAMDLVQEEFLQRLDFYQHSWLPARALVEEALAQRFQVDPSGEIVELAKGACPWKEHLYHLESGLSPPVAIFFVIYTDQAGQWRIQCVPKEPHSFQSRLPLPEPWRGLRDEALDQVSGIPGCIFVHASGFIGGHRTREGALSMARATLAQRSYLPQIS
UniProt Q9H0W9: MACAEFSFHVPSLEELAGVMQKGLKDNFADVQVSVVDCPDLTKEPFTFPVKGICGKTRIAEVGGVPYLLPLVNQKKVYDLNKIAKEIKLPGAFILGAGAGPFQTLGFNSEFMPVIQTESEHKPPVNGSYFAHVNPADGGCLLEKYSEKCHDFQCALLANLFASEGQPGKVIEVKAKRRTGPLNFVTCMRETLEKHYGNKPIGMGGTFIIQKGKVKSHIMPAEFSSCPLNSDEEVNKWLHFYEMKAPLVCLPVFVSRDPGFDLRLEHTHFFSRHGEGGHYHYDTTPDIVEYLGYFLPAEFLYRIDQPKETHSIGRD
UniProt P41223: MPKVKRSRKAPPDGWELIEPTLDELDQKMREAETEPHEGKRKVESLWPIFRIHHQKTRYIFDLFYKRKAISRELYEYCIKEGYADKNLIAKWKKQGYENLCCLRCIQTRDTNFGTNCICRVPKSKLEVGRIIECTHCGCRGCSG

Compound in this experiment: Cc1cc(ccc1-c1ccccc1)C(=O)N1CCCN(CC1)C(=O)CCl [compound 10]
Description: probe-labelled cysteine peptide fold change vs DMSO (competition) (log2 fold change); higher = less target engagement (more negative = stronger competition). To be noted: THP-1, incubation time: 4 h.

Some of the results follow.
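Also: competitive profiling in live THP-1 cells: cysteine peptides tagged with an iodoacetamide desthiobiotin (IA-DTB) probe, intensity after compound treatment relative to DMSO-treated cells.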

As to “BRCA1_P38398_1697_TDAEFVCER (UniProt P38398)”, the “probe-labelled cysteine peptide fold change” value (10 µM) stood at 0.328 and the “probe-labelled cysteine peptide fold change” value (50 µM) is 0.623.
As to “CANX_P27824_160_PFLFDTKPLIVQYEVNFQNGIECGGAYVK (UniProt P27824)”, the “probe-labelled cysteine peptide fold change” value is -0.104 (10 µM) and 0.423 (50 µM).
For “CAND1_Q86VP6_413_QTRPVQSWLCDPDAMEQGETPLTMLQSQVPNIVK (UniProt Q86VP6)”, the “probe-labelled cysteine peptide fold change” value reads like this: (10 µM) 0.0762; (50 µM) -0.165.
The like results for “CAMK1D_Q8IU85_270_YTCEQAAR (UniProt Q8IU85)” were, in that order, -0.161 and -0.0763.
“CANX_P27824_160_PLIVQYEVNFQNGIECGGAYVK (UniProt P27824)”: the “probe-labelled cysteine peptide fold change” value is -0.141 (10 µM) and 0.376 (50 µM).
The like results for “C2CD2L_O14523_385_QLCPLTPGPGK (UniProt O14523)” were, in that order, -0.0754 and 0.294.
With “CALR_P27797_137_LFPNSLDQTDMHGDSEYNIMFGPDICGPGTK (UniProt P27797)”, the “probe-labelled cysteine peptide fold change” value was -0.0389 (10 µM) and 0.0181 (50 µM).
With “C1orf112_Q9NSG2_559_EQTVHEVTTVGTAECR (UniProt Q9NSG2)”, the “probe-labelled cysteine peptide fold change” value is, setting by setting: (10 µM) -0.156; (50 µM) 0.0382.
With “C11orf68_Q9H3H3_214_QVICVYTDDFTDR (UniProt Q9H3H3)”, the “probe-labelled cysteine peptide fold change” value was 0.267 (10 µM) and -0.0173 (50 µM).
For “C12orf10_Q9HB07_56+62_IGTHNGTFHCDEALACALLR (UniProt Q9HB07)”, the “probe-labelled cysteine peptide fold change” value by setting is: (10 µM) 0.0654; (50 µM) -0.118.
Turning to “C11orf54_Q9H0W9_226_SHIMPAEFSSCPLNSDEEVNK (UniProt Q9H0W9)”, the “probe-labelled cysteine peptide fold change” value (10 µM) was -0.0406 and the “probe-labelled cysteine peptide fold change” value (50 µM) was -0.12.
For “BUD31_P41223_101_KQGYENLCCLR (UniProt P41223)”, the “probe-labelled cysteine peptide fold change” value reads like this: (10 µM) -0.0226; (50 µM) -0.397.
“C16orf62_Q7Z3J2_454_ECDESGFPK (UniProt Q7Z3J2)”: the “probe-labelled cysteine peptide fold change” value (10 µM) is -0.298 and the “probe-labelled cysteine peptide fold change” value (50 µM) is -0.132.
